The list shows a part of the results. Shown are side measurements of this screen, not its main read-out; they come without a call. The list favours compounds with an active or inconclusive main result. Words in brackets tell the shape of the fitted curve; partial curves, single points and poor fits give uncertain potencies.
Assay: qHTS Assay for Lipid Storage Modulators in Drosophila S3 Cells;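 as to cell number change: cells counted by Cell Tracker Red CMTPX staining in the red channel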
Conditions: BODIPY lipid droplet fluorescence, 18-24 h; for cell number change: measured here: cell count max response, cells fed with added oleic acid
How it was run: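 Drosophila S3 cells got compounds at several concentrations plus oleic acid (400 uM solution). Laser-scanning cytometry with 488 nm excitation read lipid droplets at 500-530 nm and cells at 575-640 nm. Percent activity was relative to 20 uM Triacsin C.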

[1] = measured here: lipid fluorescence (Fed channel) AC50, cells fed with added oleic acid
[2] = measured here: cell number channel AC50, cells fed with added oleic acid

Structure (SMILES)	cell number change	AC50 [1]	AC50 [2]
CCN(CC(=O)Nc1ccc(NC(C)=O)cc1)C(=O)CSCc1c(C)noc1C	-2.55%	25.9 µM [falling, partial curve]	–
COc1ccc(N/C(=C(/C(Cl)=C(Cl)Cl)[N+](=O)[O-])n2nnc3ccccc32)cc1OC	58.4%	29.1 µM [rising, partial curve]	11.6 µM [rising, partial curve]
Cn1c(NC(=O)Cc2cccs2)cc(=O)n(C)c1=O	-11.9%	0.461 µM [rising, partial curve]	–
O=C(CCCn1cnc([N+](=O)[O-])n1)Nc1ccc(F)c(Cl)c1	24.3%	0.13 µM [falling, full curve, poor fit]	–
Cc1ccc2c(C(=O)CN3CCN(c4ccccc4)CC3)c(C)[nH]c2c1	-1.93%	0.0366 µM [rising, full curve, poor fit]	–
O=C(O)[C@H](Cc1ccccc1)NC(=O)N1CCCCCC1	61.3%	–	29.1 µM [rising, single point]
COc1ccc(-n2nc(C(=O)NCC(=O)Nc3cccc(NC(C)=O)c3)c3ccccc3c2=O)cc1	–	–	0.082 µM [rising, full curve, poor fit]
Cc1ccc(C)c(OCc2cc(C(=O)NC3CCN(Cc4ccccc4)CC3)no2)c1	-17.6%	6.51 µM [falling, single point]	–
CCOC(CNc1ncnc2sc(-c3ccccc3)cc12)OCC	14.4%	–	–
CCN(C(=O)c1cccnc1SC)C12CC3CC(CC(C3)C1)C2	22.6%	–	–
CC(=O)c1ccc(Cl)c(Cl)c1Cl	-33.3%	0.092 µM [rising, full curve, poor fit]	25.9 µM [falling, single point]
O=C(CN(Cc1ccco1)C(=O)Cn1nnc(-c2cccs2)n1)NCc1ccccc1	33.7%	0.731 µM [rising, single point]	16.4 µM [rising, single point]
COc1cc(C2C(C(=O)/C=C/c3ccccc3)=C(O)C(=O)N2c2ccccn2)ccc1O (stereo not drawn)	-13.7%	1.46 µM [falling, partial curve]	4.61 µM [falling, single point]
Cn1c(=O)c(Sc2ccc(Cl)cc2)c(O)c2ccccc21	14.6%	18.4 µM [rising, single point]	–
COC(=O)c1ccc(N2C(=O)CC(N3CCOCC3)C2=O)cc1 (stereo not drawn)	-9.11%	0.00461 µM [rising, full curve, poor fit]	–
O=C(CC1(O)C(=O)Nc2ccccc21)c1ccc(-n2cnnn2)cc1 (stereo not drawn)	-14.2%	0.116 µM [falling, full curve, poor fit]	–

A different layout for 2 compounds above.
Structure (SMILES) | cell number change | AC50 [1] | AC50 [2]
O=C(CN(Cc1ccco1)C(=O)Cn1nnc(-c2cccs2)n1)NCc1ccccc1 | 33.7% | 0.731 µM [rising, single point] | 16.4 µM [rising, single point]
COc1cc(C2C(C(=O)/C=C/c3ccccc3)=C(O)C(=O)N2c2ccccn2)ccc1O (stereo not drawn) | -13.7% | 1.46 µM [falling, partial curve] | 4.61 µM [falling, single point]

Reference: PubChem BioAssay AID2685 (National Center for Advancing Translational Sciences (NCATS), 2010)
